# Reference: patent US7622552 (dated 2009)
# Assay: peptide synthesis
# Conditions: whole synthesis, RPHPLC
substance,measurement,value
GEQKLISEEDL-NH2,final HPLC purity,>95%
